Assay results published in PubChem BioAssay AID651640 (Broad Institute, 2012).
Several values for one entry are separate records, joined by “and”; a condition that tells them apart may be missing. Equal values may be shown once. Hit rate of the full screen: of about 350,000 compounds, about 6,000 (1.7%) were called active. This list was built around the results that the source calls inconclusive (neither active nor inactive); the mix of calls is not that of the screen. Rule as the data show it: active = CPE inhibition above about 20% (passing the limit was not always enough); inconclusive = no clear call, values can overlap the other calls; tested in BHK-21 cells. A structure can be active in one record and inactive in another.

Assay: protection of cells from dengue 2 killing – plate reader, single concentration, primary screen (AID 651640);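 also: 0% = median of neutral control wells and 100% = median of positive control wells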
Conditions: DENV2-infected cells, cytopathic effect rescue, at 9.99 µM, stronger effect = higher value

With `COC(=O)/C=C/C1=CN(Cc2ccccc2)CCC1=O` as the molecule, how does the CPE inhibition read?
The CPE inhibition was inconclusive: 25.7%.

For `CC(C)=C1C(=O)NN(c2cccc(Cl)c2)C1=O`, which CPE inhibition is on record?
Its CPE inhibition is inconclusive: 24.1%.

For `C/C(=N/NC(=O)c1ccncc1)c1ccc(NC(=O)c2ccc(Cl)cc2Cl)cc1`, which CPE inhibition is on record?
Its CPE inhibition is inconclusive: 26%.

For `Cc1ccccc1-n1c(=O)n(CCc2ccccc2)c(=O)c2[nH]cnc21`, which CPE inhibition is on record?
Its CPE inhibition is inconclusive: 27.5%.

For `Cc1ccc(C)c(NC(=O)COC(=O)CCc2ccc(S(=O)(=O)N3CCOCC3)cc2)c1`, which CPE inhibition is on record?
The CPE inhibition was inconclusive: 20.1%.

Which CPE inhibition does the source give for `COc1ccc(NC(=O)N[C@@H]2CC[C@@H](CCn3cc(-c4ccccn4)nn3)O[C@H]2CO)cc1` here?
Its CPE inhibition is inconclusive: 33.9%.

Which CPE inhibition does the source give for `C=CCOC(=O)C1=C[C@@H](c2ccc(C(F)(F)F)cc2)[C@H](CCCO)[C@@H](OCC)O1` here?
Its CPE inhibition is inactive: -15.5% and active: 36.4%.

Which CPE inhibition does the source give for `NC(=O)NC(=O)COC(=O)CCCSc1nc2ccccc2s1` here?
Its CPE inhibition is inconclusive: 24.9%.

Which CPE inhibition does the source give for `COc1ccccc1NC(=O)N1CCN(c2ccccn2)CC1` here?
The CPE inhibition was active: 31.4%.

Which CPE inhibition does the source give for `CCc1ccc2cccc3c2c1N=CN3C` here?
The CPE inhibition was inactive: -1.66%.

Which CPE inhibition does the source give for `CCNC(=O)C[C@H]1CC[C@@H]2[C@H](COc3ccc(NC(=O)Nc4ccccc4Cl)cc3C(=O)N2C)O1` here?
The CPE inhibition was inactive: -2.56%.

For `Cc1nc(C)c(C(=O)OCC(=O)Nc2ccccc2)s1`, which CPE inhibition is on record?
The CPE inhibition was inconclusive: 21.6%.

Which CPE inhibition does the source give for `CCCS(=O)(=O)NC(=O)C1(C)CCCN(C(=O)c2ccccc2F)C1` (configuration not stated) here?
Its CPE inhibition is inconclusive: 20.4%.

Which CPE inhibition does the source give for `C/C(=N\OCc1ccc(C#N)cc1)c1ccc(S(=O)(=O)N(C)C)cc1` here?
Its CPE inhibition is inactive: -4.11%.

For `COC(=O)[C@]1(Cc2ccccc2)N[C@H](CN(C)C(=O)Nc2ccc(Cl)cc2)[C@@H]2C(=O)N(Cc3ccccc3)C(=O)[C@@H]21`, which CPE inhibition is on record?
Its CPE inhibition is active: 21.7%.

Which CPE inhibition does the source give for `CCc1cnc(N2[C@H](C#N)[C@H](c3ccc(C#CCC4CCCC4)cc3)[C@H]2CO)s1` here?
Its CPE inhibition is inconclusive: 49.7%.

For `C[C@@H]1CN([C@@H](C)CO)C(=O)c2cc(NC(=O)Cc3cn(C)c4ccccc34)ccc2O[C@@H]1CN(C)S(=O)(=O)c1cn(C)cn1`, which CPE inhibition is on record?
Its CPE inhibition is inactive: 0.373%.

Which CPE inhibition does the source give for `O=C(NNc1ccccc1)Nc1ccccc1F` here?
The CPE inhibition was inconclusive: 21%.

With `Cc1c(CC(=O)NCC(=O)NCC(=O)N[C@@H](Cc2ccccc2)C(=O)O)c(=O)oc2c(C)c(O)ccc12` as the molecule, how does the CPE inhibition read?
Its CPE inhibition is inconclusive: 25.2%.

For `CN(C)CC(=O)Nc1ccc2c(c1)[C@H]1C[C@@H](CC(=O)NCC3CC3)O[C@H](CO)[C@H]1O2`, which CPE inhibition is on record?
The CPE inhibition was inactive: -3.6%.

With `O=C(c1cnccn1)N1CC(=O)N2[C@H](CO)[C@H](c3ccc(C#CC4CCCC4)cc3)[C@H]2C1` as the molecule, how does the CPE inhibition read?
Its CPE inhibition is inconclusive: 21.7%.

With `C/C=C/c1ccc([C@@H]2[C@@H](CN(CC)C(=O)CC)N(C(=O)C3CCC3)[C@H]2CO)cc1` as the molecule, how does the CPE inhibition read?
The CPE inhibition was active: 24.8%.

With `Cc1cc(OCCOCCNCc2ccccc2)ccc1C(C)C` as the molecule, how does the CPE inhibition read?
The CPE inhibition was inactive: 1.49%.

For `CC(C)CN(C(=O)CSc1nn(-c2ccc(Cl)cc2)c(=S)s1)C1CCS(=O)(=O)C1` (configuration not stated), which CPE inhibition is on record?
The CPE inhibition was inactive: 4.56%.

Which CPE inhibition does the source give for `CC1(Oc2cccc(C#N)c2)CCN(Cc2ccccc2OC(F)F)C1` (configuration not stated) here?
Its CPE inhibition is inconclusive: 35.7%.

Which CPE inhibition does the source give for `COc1ccc(CN(C)C[C@@H]2OCCCC[C@H](C)Oc3ccc(NC(=O)Cc4ccccc4)cc3C(=O)N([C@@H](C)CO)C[C@H]2C)cc1` here?
The CPE inhibition was active: 26.5%.

With `COc1ccc(NC(=O)N(C)C[C@@H]2Oc3ncc(C#CCN(C)C)cc3C(=O)N([C@H](C)CO)C[C@@H]2C)cc1` as the molecule, how does the CPE inhibition read?
The CPE inhibition was inconclusive: 29.5%.

For `CN(C)S(=O)(=O)n1cc(/C=C(\NC(=O)c2ccccc2)C(=O)NCCCn2ccnc2)c2ccccc21`, which CPE inhibition is on record?
The CPE inhibition was inactive: 9.86%.

With `COc1ccc(CN(C)C[C@H]2Oc3ccc(NC(=O)Nc4ccccc4)cc3CC(=O)N([C@@H](C)CO)C[C@@H]2C)cc1` as the molecule, how does the CPE inhibition read?
The CPE inhibition was inactive: 2.46%.

For `O=C(O)/C=C/C(=O)c1ccc2c(c1)CCc1ccccc1-2`, which CPE inhibition is on record?
The CPE inhibition was active: 29.3%.

With `COCCNC(=S)N1CCC(C(=O)c2ccc(C)cc2)CC1` as the molecule, how does the CPE inhibition read?
Its CPE inhibition is inconclusive: 23.8%.

With `C[C@H](CO)N1C[C@H](C)[C@H](CN(C)C(=O)Nc2cccc(C(F)(F)F)c2)OCc2cnnn2CCCC1=O` as the molecule, how does the CPE inhibition read?
Its CPE inhibition is inconclusive: 35.1%.

For `CC(C)NC(=O)N(C)C[C@@H]1Oc2ccc(NC(=O)Cc3cn(C)c4ccccc34)cc2C(=O)N([C@H](C)CO)C[C@H]1C`, which CPE inhibition is on record?
Its CPE inhibition is active: 51.8%.

With `CN1c2ccc(-c3cccc(F)c3)cc2[C@H]2[C@H](CCN2C(=O)Cc2cccnc2)[C@H]1CO` as the molecule, how does the CPE inhibition read?
The CPE inhibition was active: 113%.

With `COc1cccc(NC(=S)N2C3CCCC2CC(NC(=O)C2CC2)C3)c1` (configuration not stated) as the molecule, how does the CPE inhibition read?
The CPE inhibition was inactive: 1.08%.

With `CS(=O)(=O)Nc1ccc2c(c1)[C@@H]1C[C@H](CC(=O)NCc3ccncc3)O[C@@H](CO)[C@@H]1O2` as the molecule, how does the CPE inhibition read?
Its CPE inhibition is inconclusive: 46%.

With `COc1ccc(-c2cnc3c(c2)C(=O)N([C@@H](C)CO)C[C@H](C)[C@@H](CN(C)Cc2ccccc2)O3)cc1` as the molecule, how does the CPE inhibition read?
Its CPE inhibition is active: 47.8%.
